Source: PubChem BioAssay AID1508597 (Cure First, 2020)

- Purpose: 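Genes whose silencing sensitises or protects ovarian cancer cells against rucaparib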 (primary screen)
- System: human ovarian carcinoma lines grown from tumours: OCI-P5x (papillary serous) and OCI-C5x (clear cell)
- Reagent: siRNA pool against human genes, 1.25 pmol siRNA per well
- Duration: 72 h or 96 h, depending on the cell culture
- Conditions: rucaparib 20 µM (about IC30) or vehicle, present until read-out
- Read-out: 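ATP luminescence measured at 72 or 96 h according to the culture, then normalised and expressed as percent viability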
- Scale: viability, normalised: higher = more viable cells remaining
- Active means: 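Active when normalised viability falls below 80 percent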
- Meaning of the calls: active = viability under 80%; inactive = viability 80% or more
The whole screen tested about 2,100 reagents; this is a random part of them. 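Calls flag viability under 80% in either arm, not effects specific to rucaparib; the reference for percent is not stated.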 Unmarked entries are inactive. Some reagents were tested in more than one well and are listed for each. Not given: the 100% reference.

no.	gene	rucaparib or vehicle	cell line	technical replicate	viability, normalised (%)
1	TAF6L	Rucaparib	OCI-C5x (clear cell)	1	66.6 (active)
2	TAF6L	Rucaparib	OCI-C5x (clear cell)	2	80.8
3	TAF6L	Rucaparib	OCI-C5x (clear cell)	3	50.8 (active)
4	TAF6L	Rucaparib	OCI-P5x (serous)	1	74.2 (active)
5	TAF6L	Rucaparib	OCI-P5x (serous)	2	74.1 (active)
6	TAF6L	Rucaparib	OCI-P5x (serous)	3	67 (active)
7	TAF6L	Vehicle	OCI-C5x (clear cell)	1	52.9 (active)
8	TAF6L	Vehicle	OCI-C5x (clear cell)	2	66.3 (active)
9	TAF6L	Vehicle	OCI-C5x (clear cell)	3	57.2 (active)
10	TAF6L	Vehicle	OCI-P5x (serous)	1	73 (active)
11	TAF6L	Vehicle	OCI-P5x (serous)	2	58.1 (active)
12	TAF6L	Vehicle	OCI-P5x (serous)	3	93
13	PARP8	Rucaparib	OCI-C5x (clear cell)	1	39 (active)
14	PARP8	Rucaparib	OCI-C5x (clear cell)	2	32.6 (active)
15	PARP8	Rucaparib	OCI-C5x (clear cell)	3	34.9 (active)
16	PARP8	Rucaparib	OCI-P5x (serous)	1	25.8 (active)
17	PARP8	Rucaparib	OCI-P5x (serous)	2	25.8 (active)
18	PARP8	Rucaparib	OCI-P5x (serous)	3	38.7 (active)
19	PARP8	Vehicle	OCI-C5x (clear cell)	1	28.9 (active)
20	PARP8	Vehicle	OCI-C5x (clear cell)	2	36.6 (active)
21	PARP8	Vehicle	OCI-C5x (clear cell)	3	33.2 (active)
22	PARP8	Vehicle	OCI-P5x (serous)	1	48.1 (active)
23	PARP8	Vehicle	OCI-P5x (serous)	2	38.3 (active)
24	PARP8	Vehicle	OCI-P5x (serous)	3	62.1 (active)
25	PMVK	Rucaparib	OCI-C5x (clear cell)	1	46.1 (active)
26	PMVK	Rucaparib	OCI-C5x (clear cell)	2	47.8 (active)
27	PMVK	Rucaparib	OCI-C5x (clear cell)	3	55.8 (active)
28	PMVK	Rucaparib	OCI-P5x (serous)	1	77.3 (active)
29	PMVK	Rucaparib	OCI-P5x (serous)	2	88.3
30	PMVK	Rucaparib	OCI-P5x (serous)	3	76.5 (active)
31	PMVK	Vehicle	OCI-C5x (clear cell)	1	108
32	PMVK	Vehicle	OCI-C5x (clear cell)	2	63 (active)
33	PMVK	Vehicle	OCI-C5x (clear cell)	3	48.6 (active)
34	PMVK	Vehicle	OCI-P5x (serous)	1	75.3 (active)
35	PMVK	Vehicle	OCI-P5x (serous)	2	71.2 (active)
36	PMVK	Vehicle	OCI-P5x (serous)	3	69.6 (active)
37	PAK3	Rucaparib	OCI-C5x (clear cell)	1	68.6 (active)
38	PAK3	Rucaparib	OCI-C5x (clear cell)	2	52.8 (active)
39	PAK3	Rucaparib	OCI-C5x (clear cell)	3	62 (active)
40	PAK3	Rucaparib	OCI-P5x (serous)	1	68.5 (active)
41	PAK3	Rucaparib	OCI-P5x (serous)	2	97.2
42	PAK3	Rucaparib	OCI-P5x (serous)	3	61.9 (active)
43	PAK3	Vehicle	OCI-C5x (clear cell)	1	77.2 (active)
44	PAK3	Vehicle	OCI-C5x (clear cell)	2	62.7 (active)
45	PAK3	Vehicle	OCI-C5x (clear cell)	3	42.1 (active)
46	PAK3	Vehicle	OCI-P5x (serous)	1	57.8 (active)
47	PAK3	Vehicle	OCI-P5x (serous)	2	76.5 (active)
48	PAK3	Vehicle	OCI-P5x (serous)	3	56.4 (active)
49	SMC2	Rucaparib	OCI-C5x (clear cell)	1	52.8 (active)
50	SMC2	Rucaparib	OCI-C5x (clear cell)	2	51.2 (active)
51	SMC2	Rucaparib	OCI-C5x (clear cell)	3	45.3 (active)
52	SMC2	Rucaparib	OCI-P5x (serous)	1	82.1
53	SMC2	Rucaparib	OCI-P5x (serous)	2	61.5 (active)
54	SMC2	Rucaparib	OCI-P5x (serous)	3	73.2 (active)
55	SMC2	Vehicle	OCI-C5x (clear cell)	1	33.5 (active)
56	SMC2	Vehicle	OCI-C5x (clear cell)	2	43.6 (active)
57	SMC2	Vehicle	OCI-C5x (clear cell)	3	45.1 (active)
58	SMC2	Vehicle	OCI-P5x (serous)	1	56.4 (active)
59	SMC2	Vehicle	OCI-P5x (serous)	2	60.9 (active)
60	SMC2	Vehicle	OCI-P5x (serous)	3	81.5
61	FANCM	Rucaparib	OCI-C5x (clear cell)	1	49.8 (active)
62	FANCM	Rucaparib	OCI-C5x (clear cell)	1	52.2 (active)
63	FANCM	Rucaparib	OCI-C5x (clear cell)	2	29.8 (active)
64	FANCM	Rucaparib	OCI-C5x (clear cell)	2	60.2 (active)
65	FANCM	Rucaparib	OCI-C5x (clear cell)	3	53.3 (active)
66	FANCM	Rucaparib	OCI-C5x (clear cell)	3	29.2 (active)
67	FANCM	Rucaparib	OCI-P5x (serous)	1	67.2 (active)
68	FANCM	Rucaparib	OCI-P5x (serous)	1	82
69	FANCM	Rucaparib	OCI-P5x (serous)	2	69.6 (active)
70	FANCM	Rucaparib	OCI-P5x (serous)	2	82.2
71	FANCM	Rucaparib	OCI-P5x (serous)	3	79.8 (active)
72	FANCM	Rucaparib	OCI-P5x (serous)	3	71.5 (active)
73	FANCM	Vehicle	OCI-C5x (clear cell)	1	48 (active)
74	FANCM	Vehicle	OCI-C5x (clear cell)	1	43.9 (active)
75	FANCM	Vehicle	OCI-C5x (clear cell)	2	51 (active)
76	FANCM	Vehicle	OCI-C5x (clear cell)	2	41 (active)
77	FANCM	Vehicle	OCI-C5x (clear cell)	3	36.9 (active)
78	FANCM	Vehicle	OCI-C5x (clear cell)	3	37.6 (active)
79	FANCM	Vehicle	OCI-P5x (serous)	1	67.4 (active)
80	FANCM	Vehicle	OCI-P5x (serous)	1	70.5 (active)
81	FANCM	Vehicle	OCI-P5x (serous)	2	70 (active)
82	FANCM	Vehicle	OCI-P5x (serous)	2	80.9
83	FANCM	Vehicle	OCI-P5x (serous)	3	128
84	FANCM	Vehicle	OCI-P5x (serous)	3	58.3 (active)

Individual results from the list.
Under “viability, normalised (%)”, PARP8, rucaparib or vehicle Rucaparib, cell line OCI-P5x (serous), technical replicate 2 has 25.8 (active)
Value for PARP8, rucaparib or vehicle Vehicle, cell line OCI-C5x (clear cell), technical replicate 1 under “viability, normalised (%)”: 28.9 (active)
PAK3, rucaparib or vehicle Vehicle, cell line OCI-C5x (clear cell), technical replicate 2, viability, normalised (%) = 62.7 (active)
SMC2, rucaparib or vehicle Vehicle, cell line OCI-C5x (clear cell), technical replicate 1, viability, normalised (%) = 33.5 (active)
Entry for PMVK, rucaparib or vehicle Rucaparib, cell line OCI-P5x (serous), technical replicate 2 in “viability, normalised (%)”: 88.3
Under “viability, normalised (%)”, TAF6L, rucaparib or vehicle Rucaparib, cell line OCI-C5x (clear cell), technical replicate 2 shows 80.8
